# Test results published in the supplement of paper PMC9254222.
# Whole data set: some 1,100 compounds, median “Renilla luciferase signal (cell health) relative to plate median” near 0.97, cut for the highest 2% near 1.6. The list shows a part of the results, in another mix than the full data.
# Test system: HEK293T (UBE3A T485A transfected, BAR Wnt reporter)
# Test: Renilla luciferase signal (cell health) relative to plate median (fold (linear ratio)); higher = higher Renilla signal
# Conditions: 24 h
# Method in brief: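 HEK293T cells carrying a transfected BAR firefly luciferase Wnt reporter, TK-Renilla and an expression plasmid were exposed to chemicals at 0.01–100 uM for 24 h, with dosing four hours after transfection. Readout used Dual-Glo luciferase. The firefly/Renilla ratio defined Wnt activity and raw Renilla defined cell health, each median-centred per plate. Figures are means of four biological replicates.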
smiles,measurement,setting,value
O=C1CCC(C2CCCCC2)CC1 [4-Cyclohexylcyclohexanone],Renilla luciferase signal,concentration: 0.1 uM,0.847
same,Renilla luciferase signal,concentration: 1 uM,0.903
same,Renilla luciferase signal,concentration: 10 uM,0.905
same,Renilla luciferase signal,concentration: 100 uM,1.09
N=C(N)c1ccc(OCCCCCOc2ccc(C(=N)N)cc2)cc1.O=S(=O)(O)CCO.O=S(=O)(O)CCO [Pentamidine isethionate],Renilla luciferase signal,concentration: 0.1 uM,1.02
same,Renilla luciferase signal,concentration: 1 uM,2.37
same,Renilla luciferase signal,concentration: 10 uM,0.453
same,Renilla luciferase signal,concentration: 100 uM,0.0508
CCO[Si](CCCNC(N)=O)(OCC)OCC [1-[3-(Triethoxysilyl)propyl]urea],Renilla luciferase signal,concentration: 0.1 uM,1.15
same,Renilla luciferase signal,concentration: 1 uM,1.08
same,Renilla luciferase signal,concentration: 10 uM,1.12
same,Renilla luciferase signal,concentration: 100 uM,1.4
CCCCCCCCN(C)CCCCCCCC [N-Methyldioctylamine],Renilla luciferase signal,concentration: 0.1 uM,1.08
same,Renilla luciferase signal,concentration: 1 uM,1.13
same,Renilla luciferase signal,concentration: 10 uM,1.27
same,Renilla luciferase signal,concentration: 100 uM,1.53
Oc1ccc2c(c1)-c1ccccc1C2 [3-Hydroxyfluorene],Renilla luciferase signal,concentration: 0.1 uM,1.05
same,Renilla luciferase signal,concentration: 1 uM,0.963
same,Renilla luciferase signal,concentration: 10 uM,1.01
same,Renilla luciferase signal,concentration: 100 uM,0.327
CCN(CC)C(=O)c1cc(S(=O)(=O)Cc2ccccc2)c(N2CCC(c3ccccc3)CC2)cc1N(CC)CCN(C)C.O=C(O)C(F)(F)F [HMR1171 trifluoroacetate (1:1)],Renilla luciferase signal,concentration: 0.1 uM,0.802
same,Renilla luciferase signal,concentration: 1 uM,0.767
same,Renilla luciferase signal,concentration: 10 uM,0.648
same,Renilla luciferase signal,concentration: 100 uM,0.249
CCCCCCC(C)OC(=O)COc1nc(F)c(Cl)c(N)c1Cl (stereo unspecified) [Fluroxypyr-meptyl],Renilla luciferase signal,concentration: 100 uM,2.31
C[C@@H]1C[C@H]2[C@@H]3CCC4=CC(=O)C=C[C@]4(C)[C@@]3(F)[C@@H](O)C[C@]2(C)[C@@]1(O)C(=O)COP(=O)([O-])[O-].[Na+].[Na+] [Dexamethasone sodium phosphate],Renilla luciferase signal,concentration: 0.1 uM,0.714
same,Renilla luciferase signal,concentration: 1 uM,0.748
same,Renilla luciferase signal,concentration: 10 uM,0.748
same,Renilla luciferase signal,concentration: 100 uM,0.77
CCCCOC(=O)C(C)Oc1ccc(Oc2ccc(C(F)(F)F)cn2)cc1 (stereo unspecified) [Fluazifop-butyl],Renilla luciferase signal,concentration: 100 uM,1.81
"c1cc(-c2ccncc2)ccn1 [4,4'-Bipyridine]",Renilla luciferase signal,concentration: 0.1 uM,0.84
same,Renilla luciferase signal,concentration: 1 uM,0.887
same,Renilla luciferase signal,concentration: 10 uM,0.924
same,Renilla luciferase signal,concentration: 100 uM,1.1
C/C=C/C=C/C(=O)O [Sorbic acid],Renilla luciferase signal,concentration: 0.1 uM,0.585
same,Renilla luciferase signal,concentration: 1 uM,0.806
same,Renilla luciferase signal,concentration: 10 uM,0.746
same,Renilla luciferase signal,concentration: 100 uM,0.351
NC(CCCP(=O)(O)O)C(=O)O (racemic),Renilla luciferase signal,concentration: 0.01 uM,0.767
same,Renilla luciferase signal,concentration: 0.1 uM,0.901
same,Renilla luciferase signal,concentration: 1 uM,1.22
same,Renilla luciferase signal,concentration: 10 uM,1.06
same,Renilla luciferase signal,concentration: 100 uM,2.45
O=C(NS(=O)(=O)/C=C/c1cccs1)c1ccc(F)cc1Br,Renilla luciferase signal,concentration: 0.1 uM,0.767
same,Renilla luciferase signal,concentration: 1 uM,0.559
same,Renilla luciferase signal,concentration: 10 uM,0.332
same,Renilla luciferase signal,concentration: 100 uM,0.277
OB(O)O [Boric acid],Renilla luciferase signal,concentration: 0.01 uM,0.818
same,Renilla luciferase signal,concentration: 0.1 uM,0.807
same,Renilla luciferase signal,concentration: 1 uM,0.865
same,Renilla luciferase signal,concentration: 10 uM,0.866
same,Renilla luciferase signal,concentration: 100 uM,1.37
CC(N)=O [Acetamide],Renilla luciferase signal,concentration: 0.1 uM,0.73
same,Renilla luciferase signal,concentration: 1 uM,0.725
same,Renilla luciferase signal,concentration: 10 uM,0.745
same,Renilla luciferase signal,concentration: 100 uM,0.667
CCCCCCCCCCC [Undecane],Renilla luciferase signal,concentration: 0.1 uM,0.95
same,Renilla luciferase signal,concentration: 1 uM,0.969
same,Renilla luciferase signal,concentration: 10 uM,1.01
same,Renilla luciferase signal,concentration: 100 uM,1.25
"CC1(C)C(=O)NC(=O)N1CO [1-(Hydroxymethyl)-5,5-dimethylhydantoin]",Renilla luciferase signal,concentration: 0.1 uM,0.8
same,Renilla luciferase signal,concentration: 1 uM,0.834
same,Renilla luciferase signal,concentration: 10 uM,0.691
same,Renilla luciferase signal,concentration: 100 uM,0.734
CC(=O)OCC(COC(C)=O)OC(C)=O [Triacetin],Renilla luciferase signal,concentration: 0.1 uM,0.684
same,Renilla luciferase signal,concentration: 1 uM,0.682
same,Renilla luciferase signal,concentration: 10 uM,0.588
same,Renilla luciferase signal,concentration: 100 uM,0.954
"CN(C)CCCN(C)CCCN(C)C [2,6,10-Trimethyl-2,6,10-triazaundecane]",Renilla luciferase signal,concentration: 0.1 uM,0.932
same,Renilla luciferase signal,concentration: 1 uM,0.811
same,Renilla luciferase signal,concentration: 10 uM,0.918
same,Renilla luciferase signal,concentration: 100 uM,0.932
C=CCc1ccc(O)c(OC)c1 [Eugenol],Renilla luciferase signal,concentration: 0.1 uM,1.14
same,Renilla luciferase signal,concentration: 1 uM,1.24
same,Renilla luciferase signal,concentration: 10 uM,1.32
same,Renilla luciferase signal,concentration: 100 uM,1.44
O=C(Nc1ccc(Cl)cc1)Nc1ccc(Cl)c(Cl)c1 [Triclocarban],Renilla luciferase signal,concentration: 0.1 uM,1
same,Renilla luciferase signal,concentration: 1 uM,0.895
same,Renilla luciferase signal,concentration: 10 uM,0.408
same,Renilla luciferase signal,concentration: 100 uM,0.021
c1ccc2ncccc2c1 [Quinoline],Renilla luciferase signal,concentration: 0.1 uM,1.03
same,Renilla luciferase signal,concentration: 1 uM,1.01
same,Renilla luciferase signal,concentration: 10 uM,0.866
same,Renilla luciferase signal,concentration: 100 uM,1.02
O=C(CCCCCCC(=O)Nc1ccccc1)NO [Vorinostat (SAHA)],Renilla luciferase signal,concentration: 0.01 uM,0.795
same,Renilla luciferase signal,concentration: 0.1 uM,0.696
same,Renilla luciferase signal,concentration: 1 uM,0.751
same,Renilla luciferase signal,concentration: 10 uM,0.189
same,Renilla luciferase signal,concentration: 100 uM,0.0167
Cc1occc1C(=O)Nc1ccc(C(=O)N2CCC(F)(F)/C(=C\C(=O)N3CCC(N4CCCCC4)CC3)c3ccccc32)cc1.Cc1occc1C(=O)Nc1ccc(C(=O)N2CCC(F)(F)/C(=C\C(=O)N3CCC(N4CCCCC4)CC3)c3ccccc32)cc1.O=C(O)/C=C/C(=O)O,Renilla luciferase signal,concentration: 0.1 uM,1.05
same,Renilla luciferase signal,concentration: 1 uM,1.08
same,Renilla luciferase signal,concentration: 10 uM,0.939
same,Renilla luciferase signal,concentration: 100 uM,0.0352
CCCCCCCCCCCCCO [1-Tridecanol],Renilla luciferase signal,concentration: 0.1 uM,1.24
same,Renilla luciferase signal,concentration: 1 uM,1.19
same,Renilla luciferase signal,concentration: 10 uM,1.31
same,Renilla luciferase signal,concentration: 100 uM,1.29
"Cc1cc(C)c(O)c(C)c1 [2,4,6-Trimethylphenol]",Renilla luciferase signal,concentration: 0.1 uM,1
same,Renilla luciferase signal,concentration: 1 uM,0.968
same,Renilla luciferase signal,concentration: 10 uM,0.971
same,Renilla luciferase signal,concentration: 100 uM,1.28
CCCCCCCCC(=O)O [Nonanoic acid],Renilla luciferase signal,concentration: 0.1 uM,0.743
same,Renilla luciferase signal,concentration: 1 uM,0.854
same,Renilla luciferase signal,concentration: 10 uM,0.901
same,Renilla luciferase signal,concentration: 100 uM,0.975
CN1CCCC1=O [N-Methyl-2-pyrrolidone],Renilla luciferase signal,concentration: 0.1 uM,1.1
same,Renilla luciferase signal,concentration: 1 uM,1.12
same,Renilla luciferase signal,concentration: 10 uM,1.22
same,Renilla luciferase signal,concentration: 100 uM,1.31
CC[C@H]1OC(=O)[C@H](C)[C@@H](O[C@H]2C[C@@](C)(OC)[C@@H](O)[C@H](C)O2)[C@H](C)[C@@H](O[C@@H]2O[C@H](C)C[C@H](N(C)C)[C@H]2O)[C@](C)(O)C[C@@H](C)C(=O)[C@H](C)[C@@H](O)[C@]1(C)O [Erythromycin],Renilla luciferase signal,concentration: 10 uM,2.38
same,Renilla luciferase signal,concentration: 100 uM,5.97
CCCCC(CC)COC(=O)CCCCC(=O)OCc1ccccc1 (stereo unspecified) [Benzyloctyl adipate],Renilla luciferase signal,concentration: 0.1 uM,1.06
same,Renilla luciferase signal,concentration: 1 uM,1.07
same,Renilla luciferase signal,concentration: 10 uM,0.987
same,Renilla luciferase signal,concentration: 100 uM,1.15
OC(Cn1cncn1)(Cn1cncn1)c1ccc(F)cc1F [Fluconazole],Renilla luciferase signal,concentration: 0.1 uM,0.97
same,Renilla luciferase signal,concentration: 1 uM,1.05
same,Renilla luciferase signal,concentration: 10 uM,0.973
same,Renilla luciferase signal,concentration: 100 uM,0.951
Nc1nc(Cl)nc2c1ncn2[C@H]1C[C@H](O)[C@@H](CO)O1 [Cladribine],Renilla luciferase signal,concentration: 0.1 uM,1.2
same,Renilla luciferase signal,concentration: 1 uM,1.14
same,Renilla luciferase signal,concentration: 10 uM,0.6
same,Renilla luciferase signal,concentration: 100 uM,0.0197
CCOCCO [2-Ethoxyethanol],Renilla luciferase signal,concentration: 0.1 uM,1.23
same,Renilla luciferase signal,concentration: 1 uM,1.26
same,Renilla luciferase signal,concentration: 10 uM,1.38
same,Renilla luciferase signal,concentration: 100 uM,1.66
C#C[C@]1(O)CC[C@H]2[C@@H]3CCc4cc(O)ccc4[C@H]3CC[C@@]21C [17alpha-Ethinylestradiol],Renilla luciferase signal,concentration: 0.1 uM,0.567
same,Renilla luciferase signal,concentration: 1 uM,1.05
same,Renilla luciferase signal,concentration: 10 uM,1.01
same,Renilla luciferase signal,concentration: 100 uM,0.104
O=C(O)Cn1c(=O)n(Cc2ccc(Br)cc2F)c(=O)c2ccc(Cl)cc21 [Zenarestat],Renilla luciferase signal,concentration: 0.1 uM,1.11
same,Renilla luciferase signal,concentration: 1 uM,0.96
same,Renilla luciferase signal,concentration: 10 uM,1.03
same,Renilla luciferase signal,concentration: 100 uM,0.927
COc1ccc([N+](=O)[O-])cc1N [2-Methoxy-5-nitroaniline],Renilla luciferase signal,concentration: 0.1 uM,0.977
same,Renilla luciferase signal,concentration: 1 uM,1.08
same,Renilla luciferase signal,concentration: 10 uM,0.973
same,Renilla luciferase signal,concentration: 100 uM,0.884
Cc1cc2c(cc1C(F)(F)F)N(C(=O)Nc1ccc(Oc3cccnc3C)nc1)CC2.Cl,Renilla luciferase signal,concentration: 0.1 uM,1
same,Renilla luciferase signal,concentration: 1 uM,0.823
same,Renilla luciferase signal,concentration: 10 uM,0.656
same,Renilla luciferase signal,concentration: 100 uM,0.6
C1CNCCN1 [Piperazine],Renilla luciferase signal,concentration: 0.1 uM,0.493
same,Renilla luciferase signal,concentration: 1 uM,0.699
same,Renilla luciferase signal,concentration: 10 uM,0.718
same,Renilla luciferase signal,concentration: 100 uM,0.971
CC(C)=CCC/C(C)=C/CO [Geraniol],Renilla luciferase signal,concentration: 0.1 uM,0.81
same,Renilla luciferase signal,concentration: 1 uM,0.784
same,Renilla luciferase signal,concentration: 10 uM,0.843
same,Renilla luciferase signal,concentration: 100 uM,0.959

# Three neighbouring entries out of the list so far:
smiles,measurement,setting,value
"CC1(C)C(=O)NC(=O)N1CO [1-(Hydroxymethyl)-5,5-dimethylhydantoin]",Renilla luciferase signal,concentration: 100 uM,0.734
CC(=O)OCC(COC(C)=O)OC(C)=O [Triacetin],Renilla luciferase signal,concentration: 0.1 uM,0.684
same,Renilla luciferase signal,concentration: 1 uM,0.682

# Rewritten tab-delimited: part of the list above
smiles	measurement	setting	value
N=C(N)c1ccc(OCCCCCOc2ccc(C(=N)N)cc2)cc1.O=S(=O)(O)CCO.O=S(=O)(O)CCO [Pentamidine isethionate]	Renilla luciferase signal	concentration: 1 uM	2.37
CN(C)CCCN(C)CCCN(C)C [2,6,10-Trimethyl-2,6,10-triazaundecane]	Renilla luciferase signal	concentration: 1 uM	0.811
O=C(CCCCCCC(=O)Nc1ccccc1)NO [Vorinostat (SAHA)]	Renilla luciferase signal	concentration: 0.1 uM	0.696
CCCCCCCCCCCCCO [1-Tridecanol]	Renilla luciferase signal	concentration: 1 uM	1.19
O=C(O)Cn1c(=O)n(Cc2ccc(Br)cc2F)c(=O)c2ccc(Cl)cc21 [Zenarestat]	Renilla luciferase signal	concentration: 1 uM	0.96
